Laboratory results published in PubChem BioAssay AID540256 (National Center for Advancing Translational Sciences (NCATS), 2011).
The campaign covered roughly 300,000 compounds. About 3,700 (1.2%) were called active. Inconclusive results, whose numbers are uncertain, are shown with a selection of clear calls. Calls come from the whole dose curve; tested in HEK293 cells. A potency beside an inconclusive call is a rough fit, not a confirmed value.

Experiment: qHTS for Inhibitors of binding or entry into cells for Lassa Virus; note: nearly all actives have a fitted effect of over 50% in size
Conditions: Lassa virus pseudotype entry inhibition, cell reporter; activity change, negative = inhibition: at 37.9 µM (top of the series) unless noted
% is set by controls: 0 for no effect and ±100 for the full control effect; potency is the fitted concentration of half-maximal effect.

| Compound | Potency | activity change, negative = inhibition |
| --- | --- | --- |
| Cc1nn(CC(=O)OCC(=O)Nc2c(C(C)C)cccc2C(C)C)c(C)c1[N+](=O)[O-] | inconclusive: 25.1 µM [activator, single point] |  |
| CCOc1ccc2nc(N3C(=O)/C(=C/c4ccccc4)NC3=S)sc2c1 | active: 12.6 µM |  |
| COc1ccc(-c2cc(C(=O)N/N=C/c3cccnc3)c3ccccc3n2)cc1 | active: 10 µM |  |
| CC(=O)NC(=S)Nc1ccc(NC(=S)NC(=O)/C=C/c2ccco2)cc1 | inconclusive: 1.26 µM [inhibitor, single point] |  |
| Cc1ccc2nc(C)c3c(c2c1)N(c1ccccc1)CC3 | inconclusive: 35.5 µM [inhibitor, single point] |  |
| CC(=O)Nc1ccc(C(=O)Nc2ccc3c(c2)N(C2CCCC2)C(=O)c2ccccc2S3)cc1 | active: 6.31 µM |  |
| O=C(Nc1ccccc1F)c1ccc2c(c1)CCN2S(=O)(=O)c1ccccc1 | inconclusive: 1.12 µM [inhibitor, full curve, poor fit] |  |
| CCSc1nccc(-c2nn(-c3ccc(C)cc3)ccc2=O)n1 | inconclusive: 1.78 µM [inhibitor, full curve] |  |
| Cc1ccccc1CNCc1c(C(=O)O)c(C)n(Cc2ccc(F)cc2Cl)c1C |  | inactive: -9.69% [at 46.1 µM] |
| COc1ccc(-n2ncc3c2ncn2nc(Cc4ccccc4)nc32)cc1 |  | inactive: 18.8% [at 46.1 µM] |
| COc1ccc(NC(=O)Cn2c(=O)n(Cc3ccco3)c(=O)c3oc4ccccc4c32)cc1Cl |  | inactive: 3.48% [at 46.1 µM] |
| CCCOc1ccc(N2C(=O)CC(N(CCOC34CC5CC(CC(C5)C3)C4)C(C)=O)C2=O)cc1 (stereo not given) | inconclusive: 35.5 µM [inhibitor, single point] |  |
| CCn1c(O)c(/C=N/N=C/c2ccccc2)c2ccc(C3=NNC(=O)CC3)cc21 | inconclusive: 12.6 µM [inhibitor, single point] |  |
| COC(=O)c1sccc1NC(=O)CSc1cccc(Cl)c1Cl |  | inactive: 9.88% |
| CC(/C=N/Nc1nc(C)cc(C)n1)=C\c1ccc(C(C)C)cc1 |  | inactive: -4.66% |
| O=c1[nH][nH]c(=O)c2c1[nH]c(=S)n2Cc1ccccc1 |  | inactive: 26% [at 46.1 µM] |
| COc1cc(Cl)ccc1OCc1cc(C(=O)NC(C)Cc2cccnc2)no1 (stereo not given) | inconclusive: 5.62 µM [activator, single point] |  |
| COc1cc(/C=N\NC(=O)c2ccc(-c3ccccc3)cc2)cc(OC)c1OC(C)=O | inconclusive: 31.6 µM [inhibitor, partial curve, poor fit] |  |
| Cc1ccc(C(=O)Nc2cnc3sc(C)nn3c2=O)cc1 | inconclusive: 10 µM [activator, partial curve, poor fit] |  |
| Nc1cccnc1Sc1cccc(Cl)c1 |  | inactive: 8.72% |

2 entries from above, comma-delimited.
Compound,Potency,"activity change, negative = inhibition"
Cc1ccccc1CNCc1c(C(=O)O)c(C)n(Cc2ccc(F)cc2Cl)c1C,,inactive: -9.69% [at 46.1 µM]
COc1ccc(-n2ncc3c2ncn2nc(Cc4ccccc4)nc32)cc1,,inactive: 18.8% [at 46.1 µM]
